The values that follow come from publication PMC10353805.

Chains of the proteins cited; added tags and fusions are not shown.
UniProt Q92793: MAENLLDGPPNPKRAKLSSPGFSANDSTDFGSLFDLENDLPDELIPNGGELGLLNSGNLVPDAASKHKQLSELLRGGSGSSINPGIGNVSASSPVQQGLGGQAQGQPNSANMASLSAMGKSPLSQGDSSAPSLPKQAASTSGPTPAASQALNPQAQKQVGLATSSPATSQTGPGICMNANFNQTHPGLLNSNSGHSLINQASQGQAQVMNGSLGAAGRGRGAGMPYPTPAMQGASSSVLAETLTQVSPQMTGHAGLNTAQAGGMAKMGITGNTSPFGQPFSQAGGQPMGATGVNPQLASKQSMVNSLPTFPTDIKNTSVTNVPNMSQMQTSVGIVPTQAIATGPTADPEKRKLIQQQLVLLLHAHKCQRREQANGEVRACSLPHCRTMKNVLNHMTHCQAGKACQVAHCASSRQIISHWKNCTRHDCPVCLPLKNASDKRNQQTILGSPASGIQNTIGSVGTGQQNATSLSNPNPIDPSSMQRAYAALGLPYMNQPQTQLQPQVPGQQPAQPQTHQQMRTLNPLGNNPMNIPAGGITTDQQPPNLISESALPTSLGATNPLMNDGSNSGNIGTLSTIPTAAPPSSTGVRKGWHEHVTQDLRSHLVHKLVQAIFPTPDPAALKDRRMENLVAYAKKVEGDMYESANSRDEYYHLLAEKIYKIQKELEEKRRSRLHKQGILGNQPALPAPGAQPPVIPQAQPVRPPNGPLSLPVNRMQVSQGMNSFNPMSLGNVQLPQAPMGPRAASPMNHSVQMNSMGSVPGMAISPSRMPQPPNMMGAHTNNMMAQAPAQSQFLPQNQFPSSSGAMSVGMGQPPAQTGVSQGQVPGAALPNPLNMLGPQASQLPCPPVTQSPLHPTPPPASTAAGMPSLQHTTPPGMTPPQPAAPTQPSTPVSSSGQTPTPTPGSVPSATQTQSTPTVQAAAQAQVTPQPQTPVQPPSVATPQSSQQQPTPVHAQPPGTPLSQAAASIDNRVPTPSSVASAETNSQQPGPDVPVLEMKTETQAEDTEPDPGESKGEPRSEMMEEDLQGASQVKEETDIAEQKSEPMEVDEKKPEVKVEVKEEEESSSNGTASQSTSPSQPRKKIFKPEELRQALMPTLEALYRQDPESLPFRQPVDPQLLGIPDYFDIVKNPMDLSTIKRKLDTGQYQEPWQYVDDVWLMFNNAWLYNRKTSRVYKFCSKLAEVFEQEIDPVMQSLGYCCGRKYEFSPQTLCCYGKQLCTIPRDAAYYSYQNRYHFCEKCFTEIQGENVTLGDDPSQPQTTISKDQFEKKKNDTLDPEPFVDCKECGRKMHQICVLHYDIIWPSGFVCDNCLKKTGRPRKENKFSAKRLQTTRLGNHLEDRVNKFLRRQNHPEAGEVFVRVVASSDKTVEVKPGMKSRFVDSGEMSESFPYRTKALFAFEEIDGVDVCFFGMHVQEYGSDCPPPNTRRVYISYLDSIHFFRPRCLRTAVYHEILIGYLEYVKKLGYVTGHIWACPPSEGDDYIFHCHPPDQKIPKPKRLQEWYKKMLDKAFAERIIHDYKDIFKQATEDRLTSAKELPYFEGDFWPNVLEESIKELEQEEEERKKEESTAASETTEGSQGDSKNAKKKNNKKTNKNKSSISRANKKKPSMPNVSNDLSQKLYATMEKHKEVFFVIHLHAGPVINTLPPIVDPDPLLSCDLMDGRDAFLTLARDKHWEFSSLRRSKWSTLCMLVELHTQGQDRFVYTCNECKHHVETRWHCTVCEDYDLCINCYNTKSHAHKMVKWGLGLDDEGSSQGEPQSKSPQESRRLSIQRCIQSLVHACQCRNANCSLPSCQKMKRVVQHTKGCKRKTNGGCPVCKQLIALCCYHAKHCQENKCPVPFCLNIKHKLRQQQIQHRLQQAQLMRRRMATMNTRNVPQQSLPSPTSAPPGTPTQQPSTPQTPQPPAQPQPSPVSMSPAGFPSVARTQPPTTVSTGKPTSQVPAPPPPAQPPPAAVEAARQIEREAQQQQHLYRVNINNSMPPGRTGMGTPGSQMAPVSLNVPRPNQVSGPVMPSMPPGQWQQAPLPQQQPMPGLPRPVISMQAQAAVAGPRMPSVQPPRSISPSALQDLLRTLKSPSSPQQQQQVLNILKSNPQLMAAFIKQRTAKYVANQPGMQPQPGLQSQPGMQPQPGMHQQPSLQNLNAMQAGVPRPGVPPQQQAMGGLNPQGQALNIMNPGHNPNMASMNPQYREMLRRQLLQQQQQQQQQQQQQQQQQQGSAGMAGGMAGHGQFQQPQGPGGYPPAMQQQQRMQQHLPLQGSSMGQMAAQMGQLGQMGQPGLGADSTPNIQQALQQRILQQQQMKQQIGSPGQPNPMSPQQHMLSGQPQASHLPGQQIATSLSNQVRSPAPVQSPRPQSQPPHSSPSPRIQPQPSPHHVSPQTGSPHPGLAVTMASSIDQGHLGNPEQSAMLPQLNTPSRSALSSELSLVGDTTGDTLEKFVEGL

No constants are given. Whether binding was seen depends on the method and setting. Binding seen in cells or lysates may run through a third protein. Some binding calls cover weakened binding; strength is not graded here. Tags and fused reporters may be left off the sequences shown.

The target of this test is T1, HA-IRF3 (UniProt Q14653).
T1 sequence: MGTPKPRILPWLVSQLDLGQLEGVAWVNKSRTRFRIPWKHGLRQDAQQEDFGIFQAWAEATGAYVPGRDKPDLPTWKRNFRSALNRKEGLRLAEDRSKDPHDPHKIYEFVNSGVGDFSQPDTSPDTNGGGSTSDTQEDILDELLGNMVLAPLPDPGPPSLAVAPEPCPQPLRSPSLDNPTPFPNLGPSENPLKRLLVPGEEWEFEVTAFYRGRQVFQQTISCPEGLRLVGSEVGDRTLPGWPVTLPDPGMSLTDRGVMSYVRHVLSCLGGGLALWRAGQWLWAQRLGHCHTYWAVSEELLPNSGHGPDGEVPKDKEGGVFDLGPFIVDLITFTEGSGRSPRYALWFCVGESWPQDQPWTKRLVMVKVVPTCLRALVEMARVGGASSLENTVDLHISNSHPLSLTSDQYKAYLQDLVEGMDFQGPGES
Briefly: co-IP; HEK-293T cells transfected with Flag-NOG1 and/or HA-IRF3, infected with SeV for 12 h; lysates immunoprecipitated with anti-HA antibody, Western blotting for endogenous CBP. In general terms: In western blotting, separated proteins are transferred to a membrane and probed.

As for “CBP (CREB-binding protein), endogenous (from UniProt Q92793 1-2442)”, the binding result is on record as “binds”.
